The record followed here is patent US10064928B2, “Peptides and combination of peptides for use in immunotherapy against CLL and other cancers” (IMMATICS BIOTECHNOLOGIES GMBH, priority 2015, dated 2018).

For data set [1], the system named is other tumor types (e.g. non-Hodgkin lymphoma, lung cancer). The data set can be described thus: Presentation of the peptides on additional tumor types (LC-MS, Tables 4A/4B, FIG. 1). Details: species or system human. Particulars: for Other relevant organs/diseases: Table 4A: additional tumor types where the peptide was over-presented on more than 5% of the measured tumor samples, or presented on more than 5% with ratio of geometric means tumor vs normal tissues larger than 3; for Additional Entities: Table 4B: additional tumour types with over-presentation (including specific presentation) on more than 5% of the measured tumour samples, or presentation on more than 5% with ratio of geometric means tumour vs normal tissues larger than 3, extended normal tissue panel.

In data set [2] the test system is CLL samples compared to a panel of normal tissues. The data set can be described thus: Identification and label-free relative LC-MS quantitation of HLA-presented peptides (presentation profiles and scores). Further details: species or system human; key: very highly over-presented on tumors compared to a panel of normal tissues (+++); highly over-presented on tumors compared to a panel of normal tissues (++); over-presented on tumors compared to a panel of normal tissues (+). To be noted: presentation score; over-presentation on tumors (CLL samples) compared to a panel of normal tissues.

As for “168 (YLLDQSFVM; listed as Homo sapiens) [compound 168]”, the Other relevant organs/diseases entry in data set [1] is given as “NHL”. Also, the “Peptide Presentation” value in data set [2] is “+++”.

Turning to “194 (YLDNVLAEL; listed as Homo sapiens) [compound 194]”, the Other relevant organs/diseases entry in data set [1] is given as “NHL”. In data set [2], the “Peptide Presentation” value was “+”.

In the case of “178 (VLFFNVQEV; listed as Homo sapiens) [compound 178]”, the Other relevant organs/diseases result in data set [1] is listed as “SCLC, NHL”. Further, in data set [2], the “Peptide Presentation” value is on record as “+++”.

As to “383 (YLLREWVNL; listed as Homo sapiens) [compound 383]”, in data set [1], the Other relevant organs/diseases result is “HCC, NHL” and the “Additional Entities” value was “Melanoma, Uterine Cancer”. In data set [2], the “Peptide Presentation” value was “+++”.

Regarding “367 (NLWSLVAKV; listed as Homo sapiens) [compound 367]”, in data set [1], the Other relevant organs/diseases result is “NSCLC, NHL, AML, Melanoma, OC” and the “Additional Entities” value is given as “Uterine Cancer”. Further, in data set [2], the “Peptide Presentation” value is on record as “++”.

Turning to “281 (NLLDDRGMTAL; listed as Homo sapiens) [compound 281]”, the Other relevant organs/diseases result in data set [1] is reported as “NHL, AML”. Further, the “Peptide Presentation” value in data set [2] is reported as “+++”.

Consider “113 (KVPAEEVLVAV; listed as Homo sapiens) [compound 113]”, for which, in data set [1], the “Additional Entities” value is on record as “NHL, NSCLC”. Also, the “Peptide Presentation” value in data set [2] is recorded as “+”.

As for “167 (TLDTSKLYV; listed as Homo sapiens) [compound 167]”, in data set [1], the Other relevant organs/diseases entry is given as “NHL”. Also, the “Peptide Presentation” value in data set [2] was “+++”.

As for “338 (FLDMTNWNL; listed as Homo sapiens) [compound 338]”, in data set [1], the Other relevant organs/diseases result is “HCC, NHL, Melanoma, OC, Urinary bladder cancer”. Also, in data set [2], the “Peptide Presentation” value is given as “+”.

For “45 (FLPELPADLEA; listed as Homo sapiens) [compound 45]”, in data set [1], the Other relevant organs/diseases result is recorded as “NHL, Melanoma” and the “Additional Entities” value was “NSCLC, Uterine Cancer, OC”. In data set [2], the “Peptide Presentation” value is recorded as “++”.

In the case of “316 (MLLEHGITL; listed as Homo sapiens) [compound 316]”, the Other relevant organs/diseases result in data set [1] is “NHL”. The “Peptide Presentation” value in data set [2] was “+++”.

In the case of “364 (KMDWIFHTI; listed as Homo sapiens) [compound 364]”, the Other relevant organs/diseases entry in data set [1] is on record as “Urinary bladder cancer”. For the same substance, the “Peptide Presentation” value in data set [2] is “+”.

In the case of “147 (SILETVATL; listed as Homo sapiens) [compound 147]”, in data set [1], the Other relevant organs/diseases entry is “NHL, AML” and the “Additional Entities” value is recorded as “Melanoma”. The “Peptide Presentation” value in data set [2] is recorded as “+++”.

As for “261 (SLVEAQGWLV; listed as Homo sapiens) [compound 261]”, in data set [1], the Other relevant organs/diseases entry is “NHL” and the “Additional Entities” value is on record as “AML”. Further, the “Peptide Presentation” value in data set [2] is “++”.

Turning to “218 (ALGEEWKGYVV; listed as Homo sapiens) [compound 218]”, in data set [1], the Other relevant organs/diseases result is “Esophageal Cancer” and the “Additional Entities” value is “AML”. The “Peptide Presentation” value in data set [2] is listed as “+”.

For the substance “166 (TLDPNQVSL; listed as Homo sapiens) [compound 166]”, the Other relevant organs/diseases result in data set [1] is reported as “AML”. Further, the “Peptide Presentation” value in data set [2] is listed as “+++”.

As for “125 (LLLEIGEVGKLFV; listed as Homo sapiens) [compound 125]”, in data set [1], the Other relevant organs/diseases entry is listed as “NHL” and the “Additional Entities” value was “BRCA”. In addition, in data set [2], the “Peptide Presentation” value is on record as “++”.

For the substance “205 (GLSQANFTL; listed as Homo sapiens) [compound 205]”, the Other relevant organs/diseases result in data set [1] is “NHL”. For the same substance, in data set [2], the “Peptide Presentation” value is reported as “+”.

In the case of “10 (FVYGESVEL; listed as Homo sapiens) [compound 10]”, the Other relevant organs/diseases entry in data set [1] is “NHL”. For the same substance, the “Peptide Presentation” value in data set [2] is listed as “+++”.

With “219 (ALLNLLESA; listed as Homo sapiens) [compound 219]”, the Other relevant organs/diseases result in data set [1] was “NHL, AML, OC”. Besides, the “Peptide Presentation” value in data set [2] is recorded as “++”.

Take “28 (AVLHLLLSV; listed as Homo sapiens) [compound 28]”: the Other relevant organs/diseases result in data set [1] is “NHL, BRCA”. For the same substance, in data set [2], the “Peptide Presentation” value is “+++”.

“297 (FLVEPQEDTRL; listed as Homo sapiens) [compound 297]”: the Other relevant organs/diseases entry in data set [1] is “NHL, Melanoma”. In addition, the “Peptide Presentation” value in data set [2] is “++”.

For “264 (TILDYINVV; listed as Homo sapiens) [compound 264]”, in data set [1], the Other relevant organs/diseases entry is on record as “Brain Cancer, NHL, AML, BRCA, OC, Uterine Cancer” and the “Additional Entities” value is “HNSCC”. Also, the “Peptide Presentation” value in data set [2] is recorded as “+++”.

Turning to “92 (ILEPLNPLL; listed as Homo sapiens) [compound 92]”, the Other relevant organs/diseases entry in data set [1] was “NHL”. Further, the “Peptide Presentation” value in data set [2] was “+++”.

As to “365 (LISPLLLPV; listed as Homo sapiens) [compound 365]”, in data set [1], the Other relevant organs/diseases entry is “NHL, AML, Melanoma, Urinary bladder cancer” and the “Additional Entities” value was “SCLC, Uterine Cancer, HNSCC”. In data set [2], the “Peptide Presentation” value is listed as “++”.

In the case of “76 (GLLRIIPYL; listed as Homo sapiens) [compound 76]”, in data set [1], the Other relevant organs/diseases result is “NHL” and the “Additional Entities” value is given as “RCC”. Besides, the “Peptide Presentation” value in data set [2] is recorded as “++”.

Regarding “214 (RLQELTEKL; listed as Homo sapiens) [compound 214]”, in data set [1], the Other relevant organs/diseases entry was “NHL, AML”. The “Peptide Presentation” value in data set [2] is “+”.

Take “130 (LLVLIPVYL; listed as Homo sapiens) [compound 130]”: in data set [1], the Other relevant organs/diseases result is “NHL, Melanoma” and the “Additional Entities” value is on record as “Uterine Cancer”. Moreover, in data set [2], the “Peptide Presentation” value was “+++”.

Turning to “145 (SALDTITTV; listed as Homo sapiens) [compound 145]”, in data set [1], the Other relevant organs/diseases entry is “NHL” and the “Additional Entities” value is given as “NSCLC, RCC, GC, HCC, AML”. Further, the “Peptide Presentation” value in data set [2] is reported as “+++”.

Take “139 (NLTDVVEKL; listed as Homo sapiens) [compound 139]”: in data set [1], the Other relevant organs/diseases result is on record as “RCC, NHL”. Besides, the “Peptide Presentation” value in data set [2] is “+++”.

Turning to “343 (TLLEALDCI; listed as Homo sapiens) [compound 343]”, in data set [1], the Other relevant organs/diseases result is given as “NHL, AML, Melanoma, Esophageal Cancer” and the “Additional Entities” value is listed as “GC, Uterine Cancer, HNSCC”. For the same substance, in data set [2], the “Peptide Presentation” value is “++”.

As to “201 (YQLELHGIEL; listed as Homo sapiens) [compound 201]”, in data set [1], the Other relevant organs/diseases result is recorded as “Esophageal Cancer” and the “Additional Entities” value is on record as “NHL”. Besides, the “Peptide Presentation” value in data set [2] is given as “+++”.

“280 (YTLDSLYWSV; listed as Homo sapiens) [compound 280]”: in data set [1], the Other relevant organs/diseases result is “NHL” and the “Additional Entities” value is “SCLC, BRCA, Melanoma, HNSCC”. In data set [2], the “Peptide Presentation” value is given as “+”.

For the substance “299 (ILEENIPVL; listed as Homo sapiens) [compound 299]”, in data set [1], the Other relevant organs/diseases entry is listed as “NHL” and the “Additional Entities” value is given as “Uterine Cancer, AML”. For the same substance, the “Peptide Presentation” value in data set [2] is reported as “++”.

“336 (YMAVTTQEV; listed as Homo sapiens) [compound 336]”: in data set [1], the “Additional Entities” value was “Uterine Cancer”. Further, in data set [2], the “Peptide Presentation” value is given as “+++”.

Take “185 (VMDDQRDLI; listed as Homo sapiens) [compound 185]”: the Other relevant organs/diseases result in data set [1] was “AML”. For the same substance, in data set [2], the “Peptide Presentation” value was “+”.

“122 (LLIPVVPGV; listed as Homo sapiens) [compound 122]”: in data set [1], the Other relevant organs/diseases entry was “NSCLC, NHL”. Besides, the “Peptide Presentation” value in data set [2] is “++”.

As to “368 (QLQPTDALLCV; listed as Homo sapiens) [compound 368]”, the “Additional Entities” value in data set [1] is recorded as “Uterine Cancer”. Besides, the “Peptide Presentation” value in data set [2] is “+”.

“202 (YVDDVFLRV; listed as Homo sapiens) [compound 202]”: in data set [1], the Other relevant organs/diseases entry was “Urinary bladder cancer” and the “Additional Entities” value is “AML, HNSCC”. Also, the “Peptide Presentation” value in data set [2] is “+++”.

Turning to “374 (VLSVITEEL; listed as Homo sapiens) [compound 374]”, in data set [1], the Other relevant organs/diseases entry was “NHL, AML” and the “Additional Entities” value was “SCLC, HCC, PrC, Urinary Bladder Cancer, Uterine Cancer”. The “Peptide Presentation” value in data set [2] is given as “++”.

As to “170 (TLTFRVETV; listed as Homo sapiens) [compound 170]”, the Other relevant organs/diseases entry in data set [1] is “NHL, Melanoma”. Moreover, the “Peptide Presentation” value in data set [2] is “+++”.

Consider “56 (FVFEAPYTL; listed as Homo sapiens) [compound 56]”, for which, in data set [1], the Other relevant organs/diseases result is “NHL, AML”. In data set [2], the “Peptide Presentation” value was “+++”.

For “266 (TLLDQLDTQL; listed as Homo sapiens) [compound 266]”, in data set [1], the Other relevant organs/diseases entry is reported as “NHL, OC, Urinary bladder cancer” and the “Additional Entities” value was “CRC, BRCA, Uterine Cancer”. Moreover, the “Peptide Presentation” value in data set [2] was “+”.

Take “283 (ILQPMDIHV; listed as Homo sapiens) [compound 283]”: in data set [1], the Other relevant organs/diseases entry is reported as “NHL”. The “Peptide Presentation” value in data set [2] is “+++”.

Turning to “37 (FIMEGGAMVL; listed as Homo sapiens) [compound 37]”, in data set [1], the Other relevant organs/diseases entry is recorded as “AML” and the “Additional Entities” value is recorded as “NHL”. The “Peptide Presentation” value in data set [2] is “+++”.

For the substance “186 (VMDPTKILI; listed as Homo sapiens) [compound 186]”, the Other relevant organs/diseases entry in data set [1] is on record as “AML, Urinary bladder cancer”. For the same substance, in data set [2], the “Peptide Presentation” value is listed as “+++”.
